Results are given in words; binding and its absence hold for the method and conditions named. Binding seen in cells or lysates may run through a third protein. A yes stands for co-enrichment or nearness to the bait. Other partners may have been found. A no says only that the protein was not detected with the bait. Where a sequence is shown, tags or fusion partners need not be part of it.

Sequences of proteins named here, by UniProt entry; tags and fusion partners are left off.
UniProt Q04636: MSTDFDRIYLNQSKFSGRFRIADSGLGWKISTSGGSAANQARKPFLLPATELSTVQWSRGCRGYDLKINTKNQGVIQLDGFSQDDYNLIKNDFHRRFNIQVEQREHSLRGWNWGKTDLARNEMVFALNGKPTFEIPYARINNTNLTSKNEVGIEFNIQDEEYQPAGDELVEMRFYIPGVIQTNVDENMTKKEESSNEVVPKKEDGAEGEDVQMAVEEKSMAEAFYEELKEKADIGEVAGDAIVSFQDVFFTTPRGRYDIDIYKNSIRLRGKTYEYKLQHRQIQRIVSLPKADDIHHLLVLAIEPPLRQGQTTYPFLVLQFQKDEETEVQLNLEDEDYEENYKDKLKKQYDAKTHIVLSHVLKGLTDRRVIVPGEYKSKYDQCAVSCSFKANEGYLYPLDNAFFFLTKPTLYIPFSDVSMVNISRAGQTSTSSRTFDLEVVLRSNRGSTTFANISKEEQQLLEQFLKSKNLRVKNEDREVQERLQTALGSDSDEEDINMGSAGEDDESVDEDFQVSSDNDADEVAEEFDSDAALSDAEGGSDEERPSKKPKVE
UniProt P32558: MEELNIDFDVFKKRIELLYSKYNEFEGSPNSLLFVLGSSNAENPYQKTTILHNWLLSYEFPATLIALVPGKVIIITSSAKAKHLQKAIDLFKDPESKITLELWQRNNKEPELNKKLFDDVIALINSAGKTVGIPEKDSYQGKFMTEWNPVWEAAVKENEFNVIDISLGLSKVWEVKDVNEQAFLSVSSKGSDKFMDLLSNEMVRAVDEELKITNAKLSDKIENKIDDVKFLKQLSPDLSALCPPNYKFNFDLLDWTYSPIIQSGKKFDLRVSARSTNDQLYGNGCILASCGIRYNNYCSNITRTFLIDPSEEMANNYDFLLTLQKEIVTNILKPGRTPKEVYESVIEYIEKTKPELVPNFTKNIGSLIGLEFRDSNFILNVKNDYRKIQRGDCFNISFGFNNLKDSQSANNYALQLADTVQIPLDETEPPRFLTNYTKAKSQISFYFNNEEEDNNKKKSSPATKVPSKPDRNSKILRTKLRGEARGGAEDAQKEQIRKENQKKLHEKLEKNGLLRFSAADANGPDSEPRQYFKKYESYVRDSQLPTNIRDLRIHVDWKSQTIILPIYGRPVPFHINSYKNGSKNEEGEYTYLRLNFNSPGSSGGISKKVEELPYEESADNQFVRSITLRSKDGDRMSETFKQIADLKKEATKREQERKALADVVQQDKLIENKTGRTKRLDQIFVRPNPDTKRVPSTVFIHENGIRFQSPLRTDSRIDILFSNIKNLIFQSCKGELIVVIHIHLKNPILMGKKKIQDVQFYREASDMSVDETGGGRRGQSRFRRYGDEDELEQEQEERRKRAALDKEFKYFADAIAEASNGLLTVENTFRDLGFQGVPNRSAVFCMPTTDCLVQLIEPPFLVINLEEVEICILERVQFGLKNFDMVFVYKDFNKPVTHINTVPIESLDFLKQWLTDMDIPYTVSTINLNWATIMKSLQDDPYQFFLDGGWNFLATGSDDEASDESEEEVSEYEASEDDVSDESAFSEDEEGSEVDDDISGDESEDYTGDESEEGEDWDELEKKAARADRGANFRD

T1: Ubp10-GFP (S. cerevisiae) (UniProt P53874)
T1 sequence: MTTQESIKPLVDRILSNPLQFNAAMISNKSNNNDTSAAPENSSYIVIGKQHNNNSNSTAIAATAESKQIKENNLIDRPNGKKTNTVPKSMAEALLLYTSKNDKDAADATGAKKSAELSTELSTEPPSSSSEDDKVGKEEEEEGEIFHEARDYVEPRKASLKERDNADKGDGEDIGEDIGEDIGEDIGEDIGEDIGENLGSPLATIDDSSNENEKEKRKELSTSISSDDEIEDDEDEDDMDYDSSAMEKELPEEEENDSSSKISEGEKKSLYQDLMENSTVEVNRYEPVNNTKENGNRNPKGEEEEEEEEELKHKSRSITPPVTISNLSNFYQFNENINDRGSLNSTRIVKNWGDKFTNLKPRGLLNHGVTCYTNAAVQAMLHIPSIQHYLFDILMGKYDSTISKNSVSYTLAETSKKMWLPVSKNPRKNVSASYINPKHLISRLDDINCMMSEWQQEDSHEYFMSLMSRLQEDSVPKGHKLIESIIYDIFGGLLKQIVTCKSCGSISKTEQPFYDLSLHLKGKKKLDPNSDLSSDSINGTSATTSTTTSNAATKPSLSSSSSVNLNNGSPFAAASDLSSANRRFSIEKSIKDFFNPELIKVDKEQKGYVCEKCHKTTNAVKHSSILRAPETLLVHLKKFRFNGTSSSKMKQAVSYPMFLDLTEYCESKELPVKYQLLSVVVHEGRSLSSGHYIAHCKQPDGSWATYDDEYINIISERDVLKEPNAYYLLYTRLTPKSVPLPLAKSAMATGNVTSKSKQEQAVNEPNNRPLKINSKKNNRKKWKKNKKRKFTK

B1: Fen1 flap endonuclease (Rad27) (enzyme, UniProt P26793 1-382)
chain: MGIKGLNAIISEHVPSAIRKSDIKSFFGRKVAIDASMSLYQFLIAVRQQDGGQLTNEAGETTSHLMGMFYRTLRMIDNGIKPCYVFDGKPPDLKSHELTKRSSRRVETEKKLAEATTELEKMKQERRLVKVSKEHNEEAQKLLGLMGIPYIIAPTEAEAQCAELAKKGKVYAAASEDMDTLCYRTPFLLRHLTFSEAKKEPIHEIDTELVLRGLDLTIEQFVDLCIMLGCDYCESIRGVGPVTALKLIKTHGSIEKIVEFIESGESNNTKWKIPEDWPYKQARMLFLDPEVIDGNEINLKWSPPKEKELIEYLCDDKKFSEERVKSGISRLKKGLKSGIQGRLDGFFQVVPKTKEQLAAAAKRAQENKKLNKNKNKVTKGRR
B2: Rpa43 (RNA pol I subunit) (protein, UniProt P46669 1-326)
chain: MSQVKRANENRETARFIKKHKKQVTNPIDEKNGTSNCIVRVPIALYVSLAPMYLENPLQGVMKQHLNPLVMKYNNKVGGVVLGYEGLKILDADPLSKEDTSEKLIKITPDTPFGFTWCHVNLYVWQPQVGDVLEGYIFIQSASHIGLLIHDAFNASIKKNNIPVDWTFVHNDVEEDADVINTDENNGNNNNEDNKDSNGGSNSLGKFSFGNRSLGHWVDSNGEPIDGKLRFTVRNVHTTGRVVSVDGTLISDADEEGNGYNSSRSQAESLPIVSNKKIVFDDEVSIENKESHKELDLPEVKEDNGSEIVYEENTSESNDGESSDSD
B3: Rpa135 (RNA pol I subunit) (protein, UniProt P22138 1-1203)
chain: MSKVIKPPGQARTADFRTLERESRFINPPKDKSAFPLLQEAVQPHIGSFNALTEGPDGGLLNLGVKDIGEKVIFDGKPLNSEDEISNSGYLGNKLSVSVEQVSIAKPMSNDGVSSAVERKVYPSESRQRLTSYRGKLLLKLKWSVNNGEENLFEVRDCGGLPVMLQSNRCHLNKMSPYELVQHKEESDEIGGYFIVNGIEKLIRMLIVQRRNHPMAIIRPSFANRGASYSHYGIQIRSVRPDQTSQTNVLHYLNDGQVTFRFSWRKNEYLVPVVMILKALCHTSDREIFDGIIGNDVKDSFLTDRLELLLRGFKKRYPHLQNRTQVLQYLGDKFRVVFQASPDQSDLEVGQEVLDRIVLVHLGKDGSQDKFRMLLFMIRKLYSLVAGECSPDNPDATQHQEVLLGGFLYGMILKEKIDEYLQNIIAQVRMDINRGMAINFKDKRYMSRVLMRVNENIGSKMQYFLSTGNLVSQSGLDLQQVSGYTVVAEKINFYRFISHFRMVHRGSFFAQLKTTTVRKLLPESWGFLCPVHTPDGSPCGLLNHFAHKCRISTQQSDVSRIPSILYSLGVAPASHTFAAGPSLCCVQIDGKIIGWVSHEQGKIIADTLRYWKVEGKTPGLPIDLEIGYVPPSTRGQYPGLYLFGGHSRMLRPVRYLPLDKEDIVGPFEQVYMNIAVTPQEIQNNVHTHVEFTPTNILSILANLTPFSDFNQSPRNMYQCQMGKQTMGTPGVALCHRSDNKLYRLQTGQTPIVKANLYDDYGMDNFPNGFNAVVAVISYTGYDMDDAMIINKSADERGFGYGTMYKTEKVDLALNRNRGDPITQHFGFGNDEWPKEWLEKLDEDGLPYIGTYVEEGDPICAYFDDTLNKTKIKTYHSSEPAYIEEVNLIGDESNKFQELQTVSIKYRIRRTPQIGDKFSSRHGQKGVCSRKWPTIDMPFSETGIQPDIIINPHAFPSRMTIGMFVESLAGKAGALHGIAQDSTPWIFNEDDTPADYFGEQLAKAGYNYHGNEPMYSGATGEELRADIYVGVVYYQRLRHMVNDKFQVRSTGPVNSLTMQPVKGRKRHGGIRVGEMERDALIGHGTSFLLQDRLLNSSDYTQASVCRECGSILTTQQSVPRIGSISTVCCRRCSMRFEDAKKLLTKSEDGEKIFIDDSQIWEDGQGNKFVGGNETTTVAIPFVLKYLDSELSAMGIRLRYNVEPK
B4: Rpa34 (RNA pol I subunit) (protein, UniProt P47006 1-233)
chain: MSKLSKDYVSDSDSDDEVISNEFSIPDGFKKCKHLKNFPLNGDNKKKAKQQQVWLIKFPSNVDISKLKSLPVDFESSTTMTIDKHDYKIMDDTDIESSLTQDNLSNMTLLVPSESKESLKIASTAKDNAPLQFDKVFSVSETAKIPAIDYSKVRVPRKDVPKVEGLKLEHFATGYDAEDFHVAEEVKENKKEPKKRSHHDDEEESSEKKKKKKEKREKREKKDKKDKKKKHRD
B5: Rpa49 (RNA pol I subunit) (protein, UniProt Q01080 1-415)
chain: MSVKRSVSEIEIESVQDQPSVAVGSFFKGFRAPSDTTFDLYKKKKSEKDEFVLHGENERLEYEGYTDSSSQASNQYVVGLFNPEKKSIQLYKAPVLVSKVVSKSSKNLRGPKIKSKSDTRPSALRNALGEAFGTKKAKKAIADLERNRIDSDKLTDSAIDIVDSVRTASKDLPTRAQLDEITSNDRPTPLANIDATDVEQIYPIESIIPKKELQFIRVSSILKEADKEKKLELFPYQNNSKYVAKKLDSLTQPSQMTKLQLLYYLSLLLGVYENRRVNNKTKLLERLNSPPEILVDGILSRFTVIKPGQFGRSKDRSYFIDPQNEDKILCYILAIIMHLDNFIVEITPLAHELNLKPSKVVSLFRVLGAIVKGATVAQAEAFGIPKSTAASYKIATMKVPFKLPEMTRRGRGPRR
B6: Elg1 (RLC cofactor) (protein, UniProt Q12050 1-791)
chain: MKRHVSLSDILTGNKRKVRRQDALQITIDDENDTESGTFDARTAKHDDSSVIFLNHSVVKPIEAVSTNHKSAKEFLMTKRTKEKCDDDDDDLIVISDKSPKSETNCSKIALSQEHEDDISIISTSRIKSSLLNERASKIKNFLKHETTDTFKRLNSISKLNEIEPPLPLHQSIFPVGDKELSDRSVDIPLPFRTIPPLNHNFLPSDYESLKDKNSASCIPVRYQAPVLLGTNIKRNTTLTWPQLFKPVTLKQVLIEPKLKLRIKNWIETSFHTLEKPTLRNRLLNRINPNKQQGSGDELANFIVPDLEEDENLRPDFYRNGEANSSLSEFVPLMILHGNSIGKKTLIQTIMREIAGDDNSYQIYEVNSNMNRSKKDLLDILLDFTTTHYVKDSSKRKSDYGLVLFNDVDVLFKEHDRGYWAMISKLCEFSRRPLVLTCKDLSLVPSELIALASEQNSLFHTKKISTSTVYAFLTKYLKSLEIEVCDDWLRDVVKQNNADIRKCLMHLQFWCVDTEADLISSKNRLPVLTSTLGSSVKDISQLTDLLSINDVIGQATLNRSMVRQEIDSTTMTPEKVNTFQDQNLDDEMKLKFDYVIDYKLHLNDPNRQPLLPFELNIYQHIQEQLEARYSYVREANHRLDNEYLVNRFKKMTESTLNFLASRIPKYDHLQSARRTRNSKKISDILNQFKGIYNDETLNENAEIDLLSATTQQIKAEINPFVFEIAKSDANVKNENKQIFELHSENVSERRYKDLVYQLSQEGVLKNVWFNADPSIVVRKWEHLHSGFSKNK

The target of this experiment is T1, Ubp10-GFP (S. cerevisiae). Put plainly: affinity purification with mass spectrometry.
With “Pob3 (FACT subunit) (from UniProt Q04636 1-552)”, the binding result is recorded as “binds”. “Spt16 (FACT subunit) (from UniProt P32558 1-1035)”: the binding result is on record as “binds”. The same measure for B1: “binds”.

For B2, the binding result is listed as “binds”. In the case of B3 it was “binds”.

Take B4: the binding entry is given as “binds”. In the case of B5 it was “binds”. In the case of B6 it was “no binding”.

These data come from doi:10.1101/2024.01.05.574312.
